Data as given in PubChem BioAssay AID652259 (Drosophila RNAi Screening Center, 2013).

Aim: 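Knock-downs that push a Wingless-driven reporter up or down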 (primary screen)
Cells: Drosophila clone 8 imaginal disc epithelial cells
Knock-down reagent: long dsRNA against Drosophila genes
Challenge: pathway stimulated by co-transfected Wingless expression plasmid
Measurement: 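Dual luciferase reads per well after Wingless plasmid stimulation: reporter firefly light and Renilla control light; activity is firefly divided by Renilla, a ratio not deposited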
Scale: firefly reporter light: higher = more Wg reporter light, before normalisation; Renilla control light: higher = more transfected or surviving cells
Active means: 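a knock-down is a candidate when at least two out of four statistical tests show it departing from its plate mean; one test alone signals a weak candidate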
Calls: active = candidate regulator (raises or lowers reporter); inactive = not a candidate
In all, the deposit lists about 22,000 reagents; below is a random part of those that have a named target and a result. In the full data, 233 (1.1%) got an active call. 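Light values are raw, unnormalised plate reads; the ratio scores behind the reporter calls were not deposited.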 Entries without a mark were called inactive. Not stated in the record: the amount of reagent, the time to read-out, the dose of the treatment.

| gene knocked down | amplicon | reporter change call, replicate 1 | firefly reporter light, replicate 1 | firefly reporter light, replicate 2 | Renilla control light, replicate 1 | Renilla control light, replicate 2 |
| --- | --- | --- | --- | --- | --- | --- |
| CG15343 | DRSC18028 | – | 22211 | – | 12592 | – |
| CG12470 | DRSC18620 | – | 34838 | – | 19079 | – |
| pes | DRSC03033 | – | 1699 | 5654 | 720 | 2725 |
| CG13855 | DRSC14705 | – | 35024 | – | 6983 | – |
| CG32631 | DRSC19768 | – | 4721 | 12509 | 1776 | 5001 |
| CG31388 | DRSC15254 | – | 10232 | – | 3276 | – |
| Eaat1 | DRSC03321 | – | 3209 | 7058 | 874 | 3030 |
| Ugt303B1 | DRSC15141 | – | 24544 | – | 16582 | – |
| Ubr1 | DRSC20148 | – | 2801 | 3078 | 1155 | 1714 |
| bdl | DRSC00271 | – | 10674 | – | 5728 | – |
| CG31267 | DRSC15748 | – | 15836 | – | 3972 | – |

3 successive reagents already listed, for reference:
| gene knocked down | amplicon | reporter change call, replicate 1 | firefly reporter light, replicate 1 | firefly reporter light, replicate 2 | Renilla control light, replicate 1 | Renilla control light, replicate 2 |
| --- | --- | --- | --- | --- | --- | --- |
| CG32631 | DRSC19768 | – | 4721 | 12509 | 1776 | 5001 |
| CG31388 | DRSC15254 | – | 10232 | – | 3276 | – |
| Eaat1 | DRSC03321 | – | 3209 | 7058 | 874 | 3030 |

The list goes on:
| gene knocked down | amplicon | reporter change call, replicate 1 | firefly reporter light, replicate 1 | firefly reporter light, replicate 2 | Renilla control light, replicate 1 | Renilla control light, replicate 2 |
| --- | --- | --- | --- | --- | --- | --- |
| CG30440 | DRSC04775 | – | 21634 | – | 10704 | – |
| CG30440 | DRSC04845 | – | 2385 | 9104 | 872 | 2531 |
| CG30440 | DRSC04855 | – | 3200 | 10297 | 677 | 1872 |
| Appl | DRSC17728 | – | 1336 | 5490 | 833 | 2018 |
| CR30409 | DRSC22058 | – | 3.92e5 | 4.28e5 | 1.53e5 | 1.65e5 |
| Tsp33B | DRSC02418 | – | 2472 | 4901 | 1030 | 2667 |
| Afg3l2 | DRSC10657 | – | 4268 | – | 1657 | – |
| Glut4EF | DRSC14347 | Wg reporter activity raised (active) | 23357 | – | 2566 | – |
| Glut4EF | DRSC14512 | – | 17852 | – | 4733 | – |
| Glut4EF | DRSC14541 | – | 16659 | – | 3920 | – |
| Glut4EF | DRSC14542 | – | 17113 | – | 4089 | – |
| Glut4EF | DRSC14543 | – | 19611 | – | 4625 | – |
| Act42A | DRSC04835 | – | 1868 | 5506 | 709 | 2204 |
| NHP2 | DRSC11229 | – | 7434 | – | 2295 | – |
| wgn | DRSC19998 | – | 21692 | – | 12064 | – |
| CG13532 | DRSC04174 | – | 3689 | 10034 | 758 | 3927 |
| Dnaaf4 | DRSC02405 | – | 2995 | 8662 | 945 | 3525 |
| CG10301 | DRSC14226 | – | 12816 | – | 9864 | – |
